Here are results for 33 compounds from the supplement of paper PMC9549374.

Each structure is given as a SMILES string. The list shows a part of the results. No stated cut-off is given here; in the data, active = 2-fold of DMSO or more and inactive = the rest. Single values of this set are uncertain. Some low values are a fixed figure set by the source, not a measured ratio.

This test concerns CM7/1-hgem mouse ES cell-derived cardiomyocytes. Kind of test: maximal number of mAG-hGem(1/110)-positive cardiomyocytes over 96 h, fold-change vs DMSO; higher = more cardiomyocyte cell cycle activity. The conditions noted are these: 1 µM; 96 (max over 12 h time points) h.
For the compound `COc1ccc(C[C@H](N)C(=O)N[C@H]2[C@@H](O)[C@H](n3cnc4c(N(C)C)ncnc43)O[C@@H]2CO)cc1`, the maximal number is inactive: 1.
Regarding `FC(F)(Cl)C(F)(F)Cl`, the maximal number was inactive: 1.
Next, `CCCCCCCCCCCCCCCC(=O)OC/C=C(C)/C=C/C=C(C)/C=C/C1=C(C)CCCC1(C)C`: inactive: 1; `CCS(=O)(=O)CCn1c([N+](=O)[O-])cnc1C`: inactive: 1; `CCCCCCCCCCCCCCCCOP(=O)([O-])OCC[N+](C)(C)C`: inactive: 1.
Next, `CC(Oc1c(Cl)cccc1Cl)C1=NCCN1` (stereo not drawn): inactive: 1.
Next, `C/C1=C2/[N-][C@H]([C@H](CC(N)=O)[C@@]2(C)CCC(=O)NC[C@@H](C)OP(=O)([O-])O[C@H]2[C@@H](O)[C@@H](n3cnc4cc(C)c(C)cc43)O[C@@H]2CO)[C@]2(C)N=C(/C(C)=C3N=C(/C=C4N=C1[C@@H](CCC(N)=O)C\4(C)C)[C@@H](CCC(N)=O)[C@]\3(C)CC(N)=O)[C@@H](CCC(N)=O)[C@]2(C)CC(N)=O.[CH2-][C@H]1O[C@H](n2cnc3c(N)ncnc32)[C@@H](O)[C@H]1O.[Co+3]`: inactive: 1.
With `CC(C)Nc1ncccn1`, the maximal number was active: 2.
Next, `CC(C)[C@@H](C)/C=C/[C@@H](C)[C@H]1CC[C@H]2C3=CC=C4C[C@@H](O)CC[C@]4(C)[C@H]3CC[C@]12C`: inactive: 0.5.
Regarding `CCN(CC)CCOCCOC(=O)C1(c2ccccc2)CCCC1`, the maximal number was inactive: 1.
Next, `CC(=O)O[C@@H]1CC2C(C)(C)C(=O)C3OC3[C@]2(C)C2CC[C@@]3(C)[C@H](c4ccoc4)OC(=O)C4OC43[C@@]21C` (stereo partly drawn): inactive: 0.5; `Cc1cc2nc3ccc(N(C)C)cc3[s+]c2cc1N`: inactive: 1.
Turning to `OCC(O)C(O)C(O)C(O)C(O)CO` (stereo not drawn), the maximal number is inactive: 0.5.
Next, `Oc1ccc(/C=C/c2cc(O)cc(O)c2)cc1`: inactive: 1; `COc1cc2ncnc(Nc3ccc(F)c(Cl)c3)c2cc1OCCCN1CCOCC1`: inactive: 1.
`COc1cc(C)c2c(c1C=O)Oc1c(c(C)c(O)c3c1C(O)OC3=O)OC2=O` (stereo not drawn): the maximal number was inactive: 1.
Next, `CCOc1ccc(C(=O)c2ccc(O)c(O)c2O)cc1`: inactive: 1.
As for `COc1ccc(Cc2cnc(N)nc2N)cc1OC`, the maximal number is inactive: 1.
Next, `COc1cc(O)c2c(=O)cc(C)oc2c1CC=C(C)C`: inactive: 1; `C=C1CC[C@H](O)C/C1=C/C=C1\CCC[C@]2(C)[C@@H]([C@H](C)CCCC(C)C)CC[C@@H]12`: inactive: 1; `CC(C)=CCc1c2c(c3occ(-c4ccc(O)cc4)c(=O)c3c1O)C=CC(C)(C)O2`: active: 4.
On to `COC(=O)C[C@H]1C(C)(C)[C@@H](OC(C)=O)[C@@H]2CC3=C4CC(=O)O[C@@H](c5ccoc5)[C@]4(C)CC[C@@H]3[C@@]1(C)C2=O`, for which the maximal number is inactive: 0.
Consider `CC(C)=CCC[C@@H](C)[C@@H]1CC[C@]2(C)C3=C(CC[C@@]12C)[C@@]1(C)CC[C@H](O)C(C)(C)[C@@H]1CC3`, for which the maximal number is inactive: 1.
Next, `CC(=O)O[C@H]1CC[C@@]2(C)[C@H](CC[C@@H]3[C@@H]2CC[C@]2(C)[C@@H]4[C@H](C[C@@H]32)O[C@]2(CC[C@@H](C)CO2)[C@H]4C)C1`: inactive: 1; `CCCCCCCCCC(=O)N[C@@H](Cc1c[nH]c2ccccc12)C(=O)N[C@H](CC(N)=O)C(=O)N[C@@H](CC(=O)O)C(=O)N[C@@H]1C(=O)NCC(=O)N[C@@H](CCCN)C(=O)N[C@@H](CC(=O)O)C(=O)N[C@H](C)C(=O)N[C@@H](CC(=O)O)C(=O)NCC(=O)N[C@H](CO)C(=O)N[C@@H]([C@H](C)CC(=O)O)C(=O)N[C@@H](CC(=O)c2ccccc2N)C(=O)O[C@@H]1C`: inactive: 1.
Next, `CO/N=C(\C(=O)N[C@@H]1C(=O)N2C(C(=O)O)=C(C[N+]3(C)CCCC3)CS[C@H]12)c1csc(N)n1`: inactive: 1; `COc1cc2c(cc1OC)C1(O)C(=O)c3ccc(O)c(C(=O)O)c3OC1CO2` (stereo not drawn): inactive: 1; `C[C@H](CCC(=O)O)[C@H]1CC[C@H]2[C@@H]3C(=O)C[C@@H]4CC(=O)CC[C@]4(C)[C@H]3CC(=O)[C@]12C`: inactive: 1.
Next, `O=C(O)/C=C/C=C/c1ccccc1`: inactive: 1; `N=C(N)c1ccc(N=NNc2ccc(C(=N)N)cc2)cc1`: inactive: 1.
With `CC(=O)Nc1ccc(C(=O)O)cc1`, the maximal number is active: 3.
Next, `O=c1ccc2ccc(O)cc2o1`: inactive: 0.
On to `O=C(O)c1ccccc1Nc1cccc(C(F)(F)F)c1`, for which the maximal number was inactive: 1.
